Measurements reported in PubChem BioAssay AID1508597 (Cure First, 2020).
Screen: 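Knock-downs altering ovarian cancer cell survival with or without PARP inhibitor rucaparib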 (primary screen). System: human ovarian carcinoma lines grown from tumours: OCI-P5x (papillary serous) and OCI-C5x (clear cell). Knock-down reagent: siRNA pool against human genes, 1.25 pmol siRNA per well. Time to read-out: 72 h or 96 h, depending on the cell culture. Conditions: rucaparib 20 µM (about IC30) or vehicle, present until read-out. Rucaparib or vehicle: Vehicle. Cell line: OCI-C5x (clear cell). Read-out: 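Luminescent ATP-based viability assay read 72 or 96 h after transfection, depending on culture, given as normalised percent viability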. Reading the numbers: viability, normalised: higher = more viable cells remaining. Hit rule: 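Active when normalised viability falls below 80 percent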. Meaning of the calls: active = viability under 80%; inactive = viability 80% or more.
This is an unselected part of the about 2,100 reagents, under one of the conditions tested. 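Calls flag viability under 80% in either arm, not effects specific to rucaparib; the reference for percent is not stated.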 A reagent listed more than once was tested more than once; the source does not tell the runs apart. Not given: the 100% reference.

Target gene,PubChem SID,technical replicate,"viability, normalised (%)",Call
PIK3C2B,SID405527514,1,82.9,inactive
PIK3C2B,SID405527514,2,77.7,active
PIK3C2B,SID405527514,3,63,active
ARID1B,SID405527974,1,47.3,active
ARID1B,SID405527974,2,53.1,active
ARID1B,SID405527974,3,44.4,active
AURKB,SID405527379,1,33.4,active
AURKB,SID405527379,1,61,active
AURKB,SID405527379,2,42.6,active
AURKB,SID405527379,2,52.3,active
AURKB,SID405527379,3,69,active
AURKB,SID405527379,3,31.9,active
FOXP1,SID405526798,1,17.4,active
FOXP1,SID405526798,2,27.9,active
FOXP1,SID405526798,3,52.4,active
DOT1L,SID405528238,1,40.1,active
DOT1L,SID405528238,2,33.6,active
DOT1L,SID405528238,3,35.1,active
TSTD1,SID405526662,1,53.2,active
TSTD1,SID405526662,2,51.8,active
TSTD1,SID405526662,3,67.5,active
YES1,SID405526465,1,94.5,inactive
YES1,SID405526465,1,60.4,active
YES1,SID405526465,2,52.3,active
YES1,SID405526465,2,72.3,active
YES1,SID405526465,3,59.4,active
YES1,SID405526465,3,76.3,active
RPS6KB1,SID405526468,1,53.1,active
RPS6KB1,SID405526468,1,62.6,active
RPS6KB1,SID405526468,2,67,active
RPS6KB1,SID405526468,2,32.6,active
RPS6KB1,SID405526468,3,48.8,active
RPS6KB1,SID405526468,3,70.9,active
BAZ2B,SID405528019,1,26.6,active
BAZ2B,SID405528019,2,38.1,active
BAZ2B,SID405528019,3,32.6,active
FBXO5,SID405526417,1,82.9,inactive
FBXO5,SID405526417,2,62.9,active
FBXO5,SID405526417,3,73.1,active

6 of these entries, reformatted:
RPS6KB1 [SID405526468], technical replicate 3 | viability, normalised (%): 70.9; Call: active
BAZ2B [SID405528019], technical replicate 1 | viability, normalised (%): 26.6; Call: active
BAZ2B [SID405528019], technical replicate 2 | viability, normalised (%): 38.1; Call: active
BAZ2B [SID405528019], technical replicate 3 | viability, normalised (%): 32.6; Call: active
FBXO5 [SID405526417], technical replicate 1 | viability, normalised (%): 82.9; Call: inactive
FBXO5 [SID405526417], technical replicate 2 | viability, normalised (%): 62.9; Call: active
